The source of these data is article PMC7015241.

The target in assay [1] is Myopalladin (MYPN) C-terminal region (not stated (human or mouse cDNA cloned)). As to the kind of experiment: two-hybrid; pGBKT7 bait and pGADT7 prey cotransformed into Y2H Gold yeast; growth on SD medium lacking Trp, Leu, His and Ade with 120 ng/mL aureobasidin A, 30°C, 3–4 days.
Assay [2] deals with Myopalladin (MYPN) Ig3 domain, yeast two-hybrid fusion (not stated (human or mouse cDNA cloned)). Described as above.

No constants are given. Whether binding was seen depends on the method and setting. Binding can be weak; no strength is given. Where a sequence is shown, tags or fusion partners need not be part of it.

B1: Myocardin-related transcription factor A (MRTF-A), yeast two-hybrid fusion (protein, UniProt Q969V6 1-931)
chain: MPPLKSPAAFHEQRRSLERARTEDYLKRKIRSRPERSELVRMHILEETSAEPSLQAKQLKLKRARLADDLNEKIAQRPGPMELVEKNILPVESSLKEAIIVGQVNYPKVADSSSFDEDSSDALSPEQPASHESQGSVPSPLEARVSEPLLSATSASPTQVVSQLPMGRDSREMLFLAEQPPLPPPPLLPPSLTNGTTIPTAKSTPTLIKQSQPKSASEKSQRSKKAKELKPKVKKLKYHQYIPPDQKQDRGAPPMDSSYAKILQQQQLFLQLQILNQQQQQHHNYQAILPAPPKSAGEALGSSGTPPVRSLSTTNSSSSSGAPGPCGLARQNSTSLTGKPGALPANLDDMKVAELKQELKLRSLPVSGTKTELIERLRAYQDQISPVPGAPKAPAATSILHKAGEVVVAFPAARLSTGPALVAAGLAPAEVVVATVASSGVVKFGSTGSTPPVSPTPSERSLLSTGDENSTPGDTFGEMVTSPLTQLTLQASPLQILVKEEGPRAGSCCLSPGGRAELEGRDKDQMLQEKDKQIEALTRMLRQKQQLVERLKLQLEQEKRAQQPAPAPAPLGTPVKQENSFSSCQLSQQPLGPAHPFNPSLAAPATNHIDPCAVAPGPPSVVVKQEALQPEPEPVPAPQLLLGPQGPSLIKGVAPPTLITDSTGTHLVLTVTNKNADSPGLSSGSPQQPSSQPGSPAPAPSAQMDLEHPLQPLFGTPTSLLKKEPPGYEEAMSQQPKQQENGSSSQQMDDLFDILIQSGEISADFKEPPSLPGKEKPSPKTVCGSPLAAQPSPSAELPQAAPPPPGSPSLPGRLEDFLESSTGLPLLTSGHDGPEPLSLIDDLHSQMLSSTAILDHPPSPMDTSELHFVPEPSSTMGLDLADGHLDSMDWLELSSGGPVLSLAPLSTTAPSLFSTDFLDGHDLQLHWDSCL
For B1, the binding entry in assay [1] and in assay [2] was “binds” throughout.

B2: Myocardin-related transcription factor B (MRTF-B), yeast two-hybrid fusion (protein, UniProt Q9ULH7 1-1088)
chain: MIDSSKKQQQGFPEILTAGDFEPLKEKECLEGSNQKSLKEVLQLRLQQRRTREQLVDQGIMPPLKSPAAFHEQIKSLERARTENFLKHKIRSRPDRSELVRMHILEETFAEPSLQATQMKLKRARLADDLNEKIAQRPGPMELVEKNILPVDSSVKEAIIGVGKEDYPHTQGDFSFDEDSSDALSPDQPASQESQGSAASPSEPKVSESPSPVTTNTPAQFASVSPTVPEFLKTPPTADQPPPRPAAPVLPTNTVSSAKPGPALVKQSHPKNPNDKHRSKKCKDPKPRVKKLKYHQYIPPDQKGEKNEPQMDSNYARLLQQQQLFLQLQILSQQKQHYNYQTILPAPFKPLNDKNSNSGNSALNNATPNTPRQNTSTPVRKPGPLPSSLDDLKVSELKTELKLRGLPVSGTKPDLIERLKPYQEVNSSGLAAGGIVAVSSSAIVTSNPEVTVALPVTTLHNTVTSSVSTLKAELPPTGTSNATRVENVHSPLPISPSPSEQSSLSTDDTNMADTFTEIMTMMSPSQFLSSSPLRMTNNEDSLSPTSSTLSNLELDAAEKDRKLQEKEKQIEELKRKLEQEQKLVEVLKMQLEVEKRGQQQRPLEAQPSAPGHSVKSDQKHGSLGSSIKDEASLPDCSSSRQPIPVASHAVGQPVSTGGQTLVAKKAVVIKQEVPVGQAEQQSVVSQFYVSSQGQPPPAVVAQPQALLTTQTAQLLLPVSIQGSSVTSVQLPVGSLKLQTSPQAGMQTQPQIATAAQIPTAALASGLAPTVPQTQDTFPQHVLSQPQQVRKVFTNSASSNTVLPYQRHPAPAVQQPFINKASNSVLQSRNAPLPSLQNGPNTPNKPSSPPPPQQFVVQHSLFGSPVAKTKDPPRYEEAIKQTRSTQAPLPEISNAHSQQMDDLFDILIKSGEISLPIKEEPSPISKMRPVTASITTMPVNTVVSRPPPQVQMAPPVSLEPMGSLSASLENQLEAFLDGTLPSANEIPPLQSSSEDREPFSLIEDLQNDLLSHSGMLDHSHSPMETSETQFAAGTPCLSLDLSDSNLDNMEWLDITMPNSSSGLTPLSTTAPSMFSADFLDPQDLPLPWD
Turning to B2, the binding entry in assay [1] is listed as “binds”.
